Source: the supplement of paper PMC6411743
± gives the standard deviation of the averaged measurements. The list shows a part of the results.

Chains of the proteins cited; added tags and fusions are not shown. Lines headed by an entry give the natural chain unless they say otherwise; changes in a name come on top.
UniProt Q1KMD3: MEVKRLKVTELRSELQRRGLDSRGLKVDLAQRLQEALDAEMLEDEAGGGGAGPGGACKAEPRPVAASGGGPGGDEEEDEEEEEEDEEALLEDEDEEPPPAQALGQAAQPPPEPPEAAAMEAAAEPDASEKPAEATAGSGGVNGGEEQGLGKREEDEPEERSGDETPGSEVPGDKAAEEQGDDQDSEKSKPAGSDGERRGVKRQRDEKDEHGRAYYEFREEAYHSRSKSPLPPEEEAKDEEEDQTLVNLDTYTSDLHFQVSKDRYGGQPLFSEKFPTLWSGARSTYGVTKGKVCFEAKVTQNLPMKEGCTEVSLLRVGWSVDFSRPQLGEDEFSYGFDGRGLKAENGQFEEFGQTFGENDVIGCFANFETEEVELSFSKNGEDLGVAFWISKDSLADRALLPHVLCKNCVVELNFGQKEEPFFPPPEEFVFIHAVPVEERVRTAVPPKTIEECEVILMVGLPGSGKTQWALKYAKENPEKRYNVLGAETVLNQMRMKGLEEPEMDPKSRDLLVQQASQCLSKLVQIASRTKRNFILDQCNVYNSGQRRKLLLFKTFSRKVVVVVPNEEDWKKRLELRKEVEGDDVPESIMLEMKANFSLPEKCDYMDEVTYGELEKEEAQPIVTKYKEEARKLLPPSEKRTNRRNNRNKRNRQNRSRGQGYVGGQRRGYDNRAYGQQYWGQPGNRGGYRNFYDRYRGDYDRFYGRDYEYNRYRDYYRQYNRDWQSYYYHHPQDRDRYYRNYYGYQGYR
UniProt Q15796, whole entry: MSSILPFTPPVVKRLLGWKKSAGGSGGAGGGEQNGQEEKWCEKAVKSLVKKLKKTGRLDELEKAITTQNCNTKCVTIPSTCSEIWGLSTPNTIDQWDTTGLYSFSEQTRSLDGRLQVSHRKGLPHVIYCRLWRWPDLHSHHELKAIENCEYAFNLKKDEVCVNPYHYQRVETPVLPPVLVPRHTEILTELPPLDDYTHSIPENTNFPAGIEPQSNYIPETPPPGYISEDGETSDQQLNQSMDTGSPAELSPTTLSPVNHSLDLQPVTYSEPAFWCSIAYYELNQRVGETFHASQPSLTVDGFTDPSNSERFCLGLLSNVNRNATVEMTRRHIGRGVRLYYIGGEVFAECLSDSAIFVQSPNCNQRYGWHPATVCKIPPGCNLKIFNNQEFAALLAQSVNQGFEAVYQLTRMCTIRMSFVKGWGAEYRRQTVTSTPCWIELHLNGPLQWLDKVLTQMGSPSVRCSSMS
UniProt Q14687: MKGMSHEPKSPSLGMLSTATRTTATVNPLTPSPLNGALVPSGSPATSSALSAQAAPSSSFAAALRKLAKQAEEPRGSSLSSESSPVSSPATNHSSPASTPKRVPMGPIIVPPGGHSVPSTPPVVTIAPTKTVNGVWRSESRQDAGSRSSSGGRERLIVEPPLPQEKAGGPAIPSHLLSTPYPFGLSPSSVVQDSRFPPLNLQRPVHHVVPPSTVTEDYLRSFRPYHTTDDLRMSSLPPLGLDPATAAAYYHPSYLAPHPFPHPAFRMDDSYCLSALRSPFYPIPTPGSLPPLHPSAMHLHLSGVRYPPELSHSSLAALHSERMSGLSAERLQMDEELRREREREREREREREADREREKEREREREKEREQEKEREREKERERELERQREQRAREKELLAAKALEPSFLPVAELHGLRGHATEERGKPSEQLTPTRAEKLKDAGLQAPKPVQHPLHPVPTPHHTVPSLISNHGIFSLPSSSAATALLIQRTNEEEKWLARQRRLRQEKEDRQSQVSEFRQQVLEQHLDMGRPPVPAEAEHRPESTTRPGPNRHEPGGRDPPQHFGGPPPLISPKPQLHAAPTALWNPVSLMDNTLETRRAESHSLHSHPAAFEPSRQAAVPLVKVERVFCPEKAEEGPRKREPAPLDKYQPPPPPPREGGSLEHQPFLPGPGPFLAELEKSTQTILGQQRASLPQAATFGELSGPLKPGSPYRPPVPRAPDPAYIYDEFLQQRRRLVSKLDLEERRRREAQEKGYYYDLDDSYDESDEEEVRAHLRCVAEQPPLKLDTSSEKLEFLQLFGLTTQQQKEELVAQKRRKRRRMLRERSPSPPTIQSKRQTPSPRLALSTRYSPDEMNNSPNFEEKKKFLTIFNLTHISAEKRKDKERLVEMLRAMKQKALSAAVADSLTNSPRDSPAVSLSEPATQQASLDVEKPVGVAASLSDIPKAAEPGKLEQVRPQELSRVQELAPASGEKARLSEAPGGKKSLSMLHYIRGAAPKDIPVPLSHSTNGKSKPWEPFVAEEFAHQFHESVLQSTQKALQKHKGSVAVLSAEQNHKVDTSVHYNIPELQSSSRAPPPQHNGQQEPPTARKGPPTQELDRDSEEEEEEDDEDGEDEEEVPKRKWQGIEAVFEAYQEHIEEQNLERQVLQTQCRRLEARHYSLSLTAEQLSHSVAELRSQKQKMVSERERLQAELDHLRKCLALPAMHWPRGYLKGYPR
UniProt Q16762: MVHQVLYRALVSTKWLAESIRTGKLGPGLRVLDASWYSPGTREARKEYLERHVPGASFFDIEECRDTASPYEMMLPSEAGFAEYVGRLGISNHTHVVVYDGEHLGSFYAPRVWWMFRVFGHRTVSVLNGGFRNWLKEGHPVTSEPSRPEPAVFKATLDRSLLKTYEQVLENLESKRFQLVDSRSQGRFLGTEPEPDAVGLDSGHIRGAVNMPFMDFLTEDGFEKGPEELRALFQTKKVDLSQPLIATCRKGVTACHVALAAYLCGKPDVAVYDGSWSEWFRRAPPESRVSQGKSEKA

Compound: Nc1nc2c(ncn2[C@@H]2O[C@H](COP(=O)(O)OP(=O)(O)OP(=O)(O)O)[C@@H](O)[C@H]2O)c(=O)[nH]1 [guanosine triphosphate]
Assay: NP40-soluble protein abundance relative to vehicle (solubility fold change) (ratio); higher = more soluble protein in presence of GTP
Description: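 Solubility proteome profiling in Jurkat crude lysate. Lysate was treated with Mg-GTP (0.1-10 mM) for 10 min at room temperature and 3 min at 37 °C, then solubilised with 0.8% NP40 and benzonase, followed by ultracentrifugation. Proteins were quantified by TMT10 LC-MS/MS; the value is the NP40-soluble abundance relative to the NP40-processed vehicle, from 3 independent experiments.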

Target	NP40-soluble protein abundance (concentration: 0.1mM)	NP40-soluble protein abundance (concentration: 0.5mM)	NP40-soluble protein abundance (concentration: 1mM)	NP40-soluble protein abundance (concentration: 2mM)	NP40-soluble protein abundance (concentration: 4mM)	NP40-soluble protein abundance (concentration: 6mM)	NP40-soluble protein abundance (concentration: 8mM)	NP40-soluble protein abundance (concentration: 10mM)
HNRNPUL2 (UniProt Q1KMD3)	1.05 ± 0.083	1.14 ± 0.17	1.18 ± 0.22	1.27 ± 0.28	1.31 ± 0.33	1.29 ± 0.32	1.28 ± 0.31	1.22 ± 0.3
UniProt Q15796 and related entries	0.962 ± 0.031	0.925 ± 0.054	0.906 ± 0.051	0.876 ± 0.034	0.857 ± 0.028	0.879 ± 0.056	0.901 ± 0.054	0.862 ± 0.029
UniProt Q14687 and related entries	1.01 ± 0.034	1.05 ± 0.041	1.12 ± 0.048	1.11 ± 0.081	1.14 ± 0.1	1.13 ± 0.093	1.15 ± 0.15	1.18 ± 0.14
UniProt Q5T0N5-3|Q5T0N5-4	1.03 ± 0.053	0.941 ± 0.028	1.01 ± 0.074	0.919 ± 0.023	0.998 ± 0.047	0.948 ± 0.05	1.01 ± 0.051	0.938 ± 0.048
TST (UniProt Q16762)	1.02 ± 0.079	1.06 ± 0.042	0.967 ± 0.033	0.932 ± 0.057	0.878 ± 0.042	0.915 ± 0.049	0.927 ± 0.069	0.867 ± 0.046
